Experimental data as given in paper PMC11986512.
These are yes or no findings as the source states them, for the method shown. For some assays here: In cells and extracts the contact can be indirect. Some binding calls cover weakened binding; strength is not graded here.

Sequences of proteins named here, by UniProt entry; tags and fusion partners are left off. A change or cut given only in a name is not applied to a line headed by its entry. Residues count along the entry.
UniProt P08514: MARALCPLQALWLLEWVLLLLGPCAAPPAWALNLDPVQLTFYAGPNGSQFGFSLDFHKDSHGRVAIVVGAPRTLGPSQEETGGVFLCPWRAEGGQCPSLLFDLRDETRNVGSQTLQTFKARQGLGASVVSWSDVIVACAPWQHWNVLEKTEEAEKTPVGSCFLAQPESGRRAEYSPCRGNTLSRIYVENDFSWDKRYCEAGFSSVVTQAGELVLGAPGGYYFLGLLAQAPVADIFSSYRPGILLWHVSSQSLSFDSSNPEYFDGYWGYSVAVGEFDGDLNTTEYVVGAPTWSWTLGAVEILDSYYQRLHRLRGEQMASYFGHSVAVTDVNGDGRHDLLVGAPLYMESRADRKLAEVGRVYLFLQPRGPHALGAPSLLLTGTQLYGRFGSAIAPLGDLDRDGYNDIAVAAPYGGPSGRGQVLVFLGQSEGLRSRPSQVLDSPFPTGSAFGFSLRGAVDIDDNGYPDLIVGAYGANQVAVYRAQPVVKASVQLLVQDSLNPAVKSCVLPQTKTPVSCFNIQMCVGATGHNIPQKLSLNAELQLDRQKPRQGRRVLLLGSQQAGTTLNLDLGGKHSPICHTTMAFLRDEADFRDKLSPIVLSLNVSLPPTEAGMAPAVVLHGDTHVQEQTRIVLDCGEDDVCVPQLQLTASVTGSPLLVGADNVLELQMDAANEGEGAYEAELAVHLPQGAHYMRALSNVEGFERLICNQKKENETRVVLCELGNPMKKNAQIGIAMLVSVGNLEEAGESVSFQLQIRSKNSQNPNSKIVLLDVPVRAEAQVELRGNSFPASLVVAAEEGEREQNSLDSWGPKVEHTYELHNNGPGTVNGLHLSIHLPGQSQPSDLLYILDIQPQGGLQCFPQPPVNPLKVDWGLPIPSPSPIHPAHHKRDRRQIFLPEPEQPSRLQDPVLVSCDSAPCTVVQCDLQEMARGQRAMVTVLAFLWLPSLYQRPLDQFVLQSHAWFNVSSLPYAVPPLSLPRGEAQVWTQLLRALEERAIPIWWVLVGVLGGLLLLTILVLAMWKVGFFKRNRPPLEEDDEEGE
UniProt P05106: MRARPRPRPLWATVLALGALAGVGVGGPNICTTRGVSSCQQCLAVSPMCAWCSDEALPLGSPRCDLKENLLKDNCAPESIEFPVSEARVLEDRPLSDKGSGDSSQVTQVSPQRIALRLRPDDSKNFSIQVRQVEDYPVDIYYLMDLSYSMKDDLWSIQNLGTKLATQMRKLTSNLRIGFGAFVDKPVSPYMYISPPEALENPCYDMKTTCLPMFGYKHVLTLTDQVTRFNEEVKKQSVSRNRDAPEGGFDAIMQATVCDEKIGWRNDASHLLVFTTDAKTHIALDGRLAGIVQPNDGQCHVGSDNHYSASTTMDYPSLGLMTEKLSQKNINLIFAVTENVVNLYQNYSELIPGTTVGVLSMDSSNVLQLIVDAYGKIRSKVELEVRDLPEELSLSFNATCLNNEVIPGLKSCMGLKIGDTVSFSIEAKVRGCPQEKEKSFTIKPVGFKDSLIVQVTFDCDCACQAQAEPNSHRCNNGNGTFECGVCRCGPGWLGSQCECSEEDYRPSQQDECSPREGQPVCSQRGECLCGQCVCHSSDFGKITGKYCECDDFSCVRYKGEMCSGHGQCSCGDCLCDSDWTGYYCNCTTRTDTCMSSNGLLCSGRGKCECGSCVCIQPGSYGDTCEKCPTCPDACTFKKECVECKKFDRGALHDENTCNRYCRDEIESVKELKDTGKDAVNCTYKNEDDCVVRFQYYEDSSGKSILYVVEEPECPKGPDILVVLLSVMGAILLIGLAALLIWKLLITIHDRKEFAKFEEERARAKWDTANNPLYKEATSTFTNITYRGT
UniProt Q9QUM0: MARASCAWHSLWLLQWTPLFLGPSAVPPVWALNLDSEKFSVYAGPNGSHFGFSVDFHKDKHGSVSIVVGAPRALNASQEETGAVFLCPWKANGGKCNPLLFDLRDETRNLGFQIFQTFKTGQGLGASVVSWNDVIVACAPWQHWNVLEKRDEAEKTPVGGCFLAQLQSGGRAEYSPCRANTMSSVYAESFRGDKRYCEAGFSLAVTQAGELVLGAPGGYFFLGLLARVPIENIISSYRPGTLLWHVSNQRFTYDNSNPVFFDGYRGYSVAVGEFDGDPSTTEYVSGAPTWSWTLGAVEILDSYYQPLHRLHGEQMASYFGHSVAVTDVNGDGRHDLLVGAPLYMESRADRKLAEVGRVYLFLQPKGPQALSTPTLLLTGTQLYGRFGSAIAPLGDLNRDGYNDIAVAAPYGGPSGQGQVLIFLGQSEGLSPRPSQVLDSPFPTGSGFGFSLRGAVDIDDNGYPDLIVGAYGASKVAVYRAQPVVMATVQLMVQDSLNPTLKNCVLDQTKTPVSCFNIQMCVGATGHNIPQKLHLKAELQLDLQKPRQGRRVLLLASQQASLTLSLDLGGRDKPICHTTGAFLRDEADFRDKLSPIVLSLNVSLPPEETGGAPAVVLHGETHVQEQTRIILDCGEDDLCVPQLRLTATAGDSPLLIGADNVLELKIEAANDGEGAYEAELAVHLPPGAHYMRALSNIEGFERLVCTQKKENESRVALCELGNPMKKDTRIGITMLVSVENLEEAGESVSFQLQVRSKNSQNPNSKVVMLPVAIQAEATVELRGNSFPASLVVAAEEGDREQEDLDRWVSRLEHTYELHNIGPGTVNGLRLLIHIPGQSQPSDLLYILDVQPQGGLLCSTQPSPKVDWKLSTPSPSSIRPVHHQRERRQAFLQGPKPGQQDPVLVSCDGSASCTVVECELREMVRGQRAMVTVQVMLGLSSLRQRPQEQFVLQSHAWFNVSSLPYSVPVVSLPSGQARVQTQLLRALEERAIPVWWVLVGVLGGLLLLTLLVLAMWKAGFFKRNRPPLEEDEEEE
UniProt O54890: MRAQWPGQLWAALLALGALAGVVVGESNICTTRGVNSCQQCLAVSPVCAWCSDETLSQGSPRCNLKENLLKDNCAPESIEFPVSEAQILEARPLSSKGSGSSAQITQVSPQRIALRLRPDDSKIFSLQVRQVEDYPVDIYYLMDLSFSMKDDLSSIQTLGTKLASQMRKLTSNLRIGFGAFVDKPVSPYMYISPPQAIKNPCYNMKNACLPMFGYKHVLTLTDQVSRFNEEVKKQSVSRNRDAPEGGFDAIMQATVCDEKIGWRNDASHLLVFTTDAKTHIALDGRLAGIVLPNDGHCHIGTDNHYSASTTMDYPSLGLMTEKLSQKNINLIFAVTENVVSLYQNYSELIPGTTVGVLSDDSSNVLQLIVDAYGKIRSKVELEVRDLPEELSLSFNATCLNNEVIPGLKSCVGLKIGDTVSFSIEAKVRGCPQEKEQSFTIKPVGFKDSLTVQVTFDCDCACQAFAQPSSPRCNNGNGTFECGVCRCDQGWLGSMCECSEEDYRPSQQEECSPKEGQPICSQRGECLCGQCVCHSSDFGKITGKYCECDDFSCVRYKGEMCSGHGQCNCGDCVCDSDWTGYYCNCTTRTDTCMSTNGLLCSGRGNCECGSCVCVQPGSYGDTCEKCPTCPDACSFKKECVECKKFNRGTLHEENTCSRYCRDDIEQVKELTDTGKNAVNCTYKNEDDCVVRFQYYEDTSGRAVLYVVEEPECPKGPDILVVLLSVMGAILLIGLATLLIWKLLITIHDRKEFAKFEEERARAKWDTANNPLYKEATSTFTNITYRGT
UniProt O95881, residues 27-172: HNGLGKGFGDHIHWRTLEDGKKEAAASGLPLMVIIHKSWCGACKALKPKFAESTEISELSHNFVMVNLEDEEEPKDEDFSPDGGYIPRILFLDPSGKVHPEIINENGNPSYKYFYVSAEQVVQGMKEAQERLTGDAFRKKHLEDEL

Columns and labels:
[1] = target: Integrin αIIbβ3 (human platelets) (human (endogenous in platelets)) (UniProt P08514+P05106); experiment: co-IP; washed human platelets (1 × 10^9/mL) stimulated with thrombin (0.5 U/mL) for the indicated times, NP-40 lysis; anti-β3 antibody SZ-21 and protein G, control IgG in parallel; blot with goat anti-ERp18 and anti-β3
[2] = target: Integrin αIIbβ3 (mouse platelets) (mouse (endogenous in platelets)) (UniProt Q9QUM0+O54890); experiment: flow cytometry on cells; washed platelets from WT and β3-null mice (2 × 10^7/mL) preincubated with FITC-conjugated ERp18-WT for 10 minutes at room temperature, then 0.1 U/mL thrombin or 2 mM Mn2+ for 5 minutes; surface-bound FITC-ERp18 read; only the binder purified

| binding [1] | binding [2] | Substance |
| --- | --- | --- |
| binds | – | ERp18 (endogenous, human platelets) (from UniProt O95881 27-172) (enzyme) |
| – | binds | Recombinant human ERp18 wild-type protein (CGAC) (from UniProt O95881 27-172) (enzyme) |
